{"source": "PubChem BioAssay AID504834", "about": "(National Center for Advancing Translational Sciences (NCATS), 2011)", "note": "The whole screen tested about 320,000 compounds, of which about 22,000 (6.9%) were called active. This list was built around the results that the source calls inconclusive (neither active nor inactive); the mix of calls is not that of the screen. Calls follow the shape of the dose curve; as a rule, active = well fitted inhibition curve with a large enough effect; inconclusive = small, poorly fitted or top-dose-only effect, or another doubt; inactive = no such curve, though single readings can be large or run the other way. A potency beside an inconclusive call is a rough fit, not a confirmed value. Potency is read from the fitted curve at half-maximal effect."}
{"test": "Primary qHTS for delayed death inhibitors of the malarial parasite plastid, 96 hour incubation", "details": "P. falciparum luciferase reporter growth; series mostly up to 28.7 µM", "summary_of_the_method": "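Readout is luminescence from an integrated firefly luciferase in P. falciparum. Red cells, 2% hematocrit and 0.05% parasitemia final, were cultured with compound through two parasite generations (96 hours) at 37 C, 5% CO2.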"}
{"smiles": "O=C(N/N=C1/CC2C=CCC12)c1ccc(Br)o1", "note": "(configuration not stated)", "Potency": "inactive"}
{"smiles": "COC(=O)C(C(C)=O)C1=C/C(=N\\S(=O)(=O)c2ccc(C)cc2)c2ccccc2C1=O", "note": "(configuration not stated)", "Potency": "inconclusive: 18.5 µM [inhibitor, single point]"}
{"smiles": "CCOC(=O)C(=CNc1ccc(-c2ccco2)c(Cl)c1)C(=O)OCC", "Potency": "inconclusive: 10.4 µM [inhibitor, partial curve]"}
{"smiles": "O=S(=O)(Nc1cccc2cn[nH]c12)c1ccc(F)cc1", "Potency": "inactive"}
{"smiles": "c1ccc(-c2ccccc2OCCN2CCCC2)cc1", "Potency": "active: 13.1 µM"}
{"smiles": "CC(Oc1cccc(Cl)c1)C(=O)Nc1ccc(S(=O)(=O)N(C)C2CCN(C)CC2)cc1", "note": "(configuration not stated)", "Potency": "inconclusive: 13.1 µM [inhibitor, single point]"}
{"smiles": "CCC1(CC)C(=O)N(Cc2ccccc2)C(=O)N(Cc2ccccc2)C1=O", "Potency": "inconclusive: 18.5 µM [inhibitor, single point]"}
{"smiles": "Cc1ccc(C(=O)Cn2nc(C)c([N+](=O)[O-])c2C)c(C)c1", "Potency": "inactive"}
{"smiles": "COc1ccccc1C(=O)NNC(=O)C(=O)N1CCCCC1", "Potency": "inconclusive: 10.4 µM [inhibitor, partial curve, poor fit]"}
{"smiles": "COc1ccc(Cc2nnc(-c3ccccc3)o2)cc1", "Potency": "active: 11.7 µM"}
{"smiles": "COc1ccc(/C=C/c2nc(N)nc(-c3ccccc3O)n2)cc1OC", "Potency": "inconclusive: 18.5 µM [inhibitor, single point]"}
{"smiles": "CCN1CCC(C(N)=O)CC1", "Potency": "inconclusive: 5.86 µM [inhibitor, partial curve, poor fit]"}
{"smiles": "CN1CCN(c2ncnc3c2cnn3-c2ccc(Cl)cc2)CC1", "Potency": "inactive"}
{"smiles": "O=C(OCc1cc(=O)n2ccsc2n1)C1(c2ccc(Cl)cc2)CC1", "Potency": "inconclusive: 9.28 µM [inhibitor, partial curve, poor fit]"}
{"smiles": "COc1cc(CNCc2ccc(Br)cc2)cc(OC)c1", "Potency": "inactive"}
{"smiles": "O=C(N/N=C/c1cccs1)C1COc2ccccc2O1", "note": "(configuration not stated)", "Potency": "inactive"}
{"smiles": "O=C(O)CC12CC3CC(C1)CC(n1cncn1)(C3)C2", "Potency": "inconclusive: 10.4 µM [inhibitor, single point]"}
{"smiles": "CCCC(=O)N1CCN(c2nnc(-c3ccccc3)c3ccccc23)CC1", "Potency": "inactive"}
{"smiles": "O=C(OCC(=O)N1CCc2ccccc21)c1c2c(nc3ccccc13)CCCC2", "Potency": "inconclusive: 11.7 µM [inhibitor, partial curve, poor fit]"}
{"smiles": "O=C(Nc1cccc(C(F)(F)F)c1)C(=O)N1CCCCC1", "Potency": "inconclusive: 13.1 µM [inhibitor, partial curve, poor fit]"}
{"smiles": "Cc1sc2nc(SCC(=O)N(CCO)CCO)n(C3CCCCC3)c(=O)c2c1C", "Potency": "inconclusive: 18.5 µM [inhibitor, single point]"}
{"smiles": "CN1C(=O)Cc2cc(S(=O)(=O)NCc3c(F)cccc3Cl)ccc21", "Potency": "inactive"}
{"smiles": "CCC(O)(CC)C(=O)NN(C(=O)CCl)c1ccccc1", "Potency": "active: 5.22 µM"}
{"smiles": "CCCCc1cc(=O)oc2cc(C)cc(OCC(=O)Nc3cccnc3)c12", "Potency": "active: 0.522 µM"}
{"smiles": "Cc1ccc(Oc2c(C)nc(-c3ccccc3)[nH]c2=O)cc1", "Potency": "active: 1.65 µM"}
{"smiles": "CC(C)CC(=O)Nc1ccc(Cc2ccncc2)cc1", "Potency": "inconclusive: 13.1 µM [inhibitor, single point]"}
{"smiles": "COc1ccc(NC(=O)CCS(=O)(=O)c2cc3c(cc2C)NC(=O)CO3)cc1", "Potency": "inconclusive: 0.117 µM [inhibitor, partial curve, poor fit]"}
{"smiles": "Cc1noc(C)c1COc1ccc(C(=O)N2CCN(S(=O)(=O)c3ccccc3)CC2)cc1", "Potency": "inconclusive: 18.5 µM [inhibitor, single point]"}
{"smiles": "O=C(NCc1ccccc1)C1=C[C@@H](C2CC2)C[C@@H](OCc2ccc(CO)cc2)O1", "Potency": "inconclusive: 18.5 µM [inhibitor, single point]"}
{"smiles": "CCOC(=O)C1=C(CC)Nc2ccccc2N/C1=N\\S(=O)(=O)c1ccccc1F", "Potency": "inconclusive: 18.5 µM [inhibitor, single point]"}
{"smiles": "CCOC(=O)C1CCCN(C(=S)Nc2cccc(Cl)c2C)C1", "note": "(configuration not stated)", "Potency": "inconclusive: 18.5 µM [inhibitor, partial curve, poor fit]"}
{"smiles": "O=C(O)/C=C/C(=O)NC1CCCCC1", "Potency": "inactive"}
{"smiles": "CS(=O)(=O)Nc1ccc(C(=O)NCC2CCCO2)cc1", "note": "(configuration not stated)", "Potency": "inconclusive: 18.5 µM [inhibitor, single point]"}
{"smiles": "O=C(NCCCc1ccccc1)C1CC(=O)N(c2ccc3c(c2)OCCO3)C1", "note": "(configuration not stated)", "Potency": "inactive"}
{"smiles": "CC(=O)OCC(=O)Nc1cc(S(=O)(=O)N2CCCCCC2)ccc1Cl", "Potency": "inactive"}
{"smiles": "CCOC(=O)c1cccc(NC(=O)CS(=O)(=O)Cc2nc(-c3cccc(OC)c3)oc2C)c1", "Potency": "inactive"}
{"smiles": "CCc1ccccc1NC(=S)N(Cc1ccco1)C(C)c1cccs1", "note": "(configuration not stated)", "Potency": "inconclusive: 18.5 µM [inhibitor, single point]"}
{"smiles": "Cc1c(Cl)cccc1N(CC(=O)NC(C)c1ccccc1)S(C)(=O)=O", "note": "(configuration not stated)", "Potency": "inconclusive: 13.1 µM [inhibitor, single point]"}
{"smiles": "CCOC(=O)N1CCC(c2cc(=O)n3[nH]c(-c4ccccc4)cc3n2)CC1", "Potency": "inconclusive: 11.7 µM [inhibitor, single point]"}
{"smiles": "O=C(O)c1c(F)c(F)c(F)c(F)c1-c1ccc(Cl)cc1", "Potency": "inconclusive: 0.0329 µM [inhibitor, full curve, poor fit]"}
{"smiles": "CCOC(=O)c1cc2c(=O)n3cccc(C)c3nc2n(CCOC)c1=NC(C)=O", "Potency": "active: 6.57 µM"}
{"smiles": "CN(CC(=O)Nc1ccc(F)cc1)C(=O)COC(=O)CNC(=O)c1sc2ccccc2c1Cl", "Potency": "inactive"}
{"smiles": "COc1ccccc1NC(=S)NC(=O)CC(C)C", "Potency": "inconclusive: 18.5 µM [inhibitor, single point]"}
{"smiles": "CC1(C)CC(=O)C2=C(C1)NC(SCC(=O)Nc1ccccc1)=C(C#N)C21CCCCC1", "Potency": "inconclusive: 11.7 µM [inhibitor, partial curve, poor fit]"}
{"smiles": "CCCCN1C(=S)NC[C@@H]1c1ccccc1", "Potency": "inactive"}
{"smiles": "CN(C)CCNC(=S)Nc1ccccc1Cl", "Potency": "inconclusive: 8.28 µM [inhibitor, partial curve, poor fit]"}
{"smiles": "COCCn1c(SCC(=O)Nc2ccccc2F)nc2c([nH]c3ccccc32)c1=O", "Potency": "inconclusive: 4.65 µM [inhibitor, partial curve, poor fit]"}
